# Experimental data taken from patent US20060051395A1 (AFFINERGY, published 2006).
# Assays:
# [1] = target: collagen sponge (Medtronic); experiment: collagen sponge retention assay; IFBM premixed with BMP, sponge washed, retained BMP detected with anti-BMP antibody (FIG. 5)
# [2] = target: collagen sponge (Medtronic); experiment: collagen sponge retention assay, two-dimensional dose response of IFBM and BMP (FIG. 6A-6D)
Binder,binding [1],binding [2]
DVNSIWMSRVIEWTYDSGSSGKSRSSDSAFSSFSALEGSVVSR (C-terminal amide (-NH2)) [IFBM AFF7008 (0016-2006)],binds,
DVNSIWMSRVIEWTYDSGSSGKSSFEPLRFPLKGVPVSR (C-terminal amide (-NH2)) [IFBM AFF7006 (0016-2009)],,binds
SSFEPLRFPLKGVPVSRGSSGKDVNSIWMSRVIEWTYDS (C-terminal amide (-NH2)) [IFBM AFF7005 (2009-0016)],,binds

# Results, then the binder that gave them:
binding [1],binding [2],Binder
binds,,DVNSIWMSRVIEWTYDSGSSGKSSDWGVVASAWDAFEALDASR (C-terminal amide (-NH2)) [IFBM AFF7017 (0016-2011)]
binds,binds,DVNSIWMSRVIEWTYDSGSSGKSSSVDLYFPLKGDVVSR (C-terminal amide (-NH2)) [IFBM AFF7010 (0016-2012)]
,binds,SSSVDLYFPLKGDVVSRGSSGKDVNSIWMSRVIEWTYDS (C-terminal amide (-NH2)) [IFBM AFF7009 (2012-0016)]

# Results are given in words; binding and its absence hold for the method and conditions named. Binding can be weak; no strength is given.
